In publication PMC9643514:

T1: Flag-tagged C-terminal-deleted IARS1 (ΔC, residues 1–1081) (human) (UniProt P41252)
T1 sequence: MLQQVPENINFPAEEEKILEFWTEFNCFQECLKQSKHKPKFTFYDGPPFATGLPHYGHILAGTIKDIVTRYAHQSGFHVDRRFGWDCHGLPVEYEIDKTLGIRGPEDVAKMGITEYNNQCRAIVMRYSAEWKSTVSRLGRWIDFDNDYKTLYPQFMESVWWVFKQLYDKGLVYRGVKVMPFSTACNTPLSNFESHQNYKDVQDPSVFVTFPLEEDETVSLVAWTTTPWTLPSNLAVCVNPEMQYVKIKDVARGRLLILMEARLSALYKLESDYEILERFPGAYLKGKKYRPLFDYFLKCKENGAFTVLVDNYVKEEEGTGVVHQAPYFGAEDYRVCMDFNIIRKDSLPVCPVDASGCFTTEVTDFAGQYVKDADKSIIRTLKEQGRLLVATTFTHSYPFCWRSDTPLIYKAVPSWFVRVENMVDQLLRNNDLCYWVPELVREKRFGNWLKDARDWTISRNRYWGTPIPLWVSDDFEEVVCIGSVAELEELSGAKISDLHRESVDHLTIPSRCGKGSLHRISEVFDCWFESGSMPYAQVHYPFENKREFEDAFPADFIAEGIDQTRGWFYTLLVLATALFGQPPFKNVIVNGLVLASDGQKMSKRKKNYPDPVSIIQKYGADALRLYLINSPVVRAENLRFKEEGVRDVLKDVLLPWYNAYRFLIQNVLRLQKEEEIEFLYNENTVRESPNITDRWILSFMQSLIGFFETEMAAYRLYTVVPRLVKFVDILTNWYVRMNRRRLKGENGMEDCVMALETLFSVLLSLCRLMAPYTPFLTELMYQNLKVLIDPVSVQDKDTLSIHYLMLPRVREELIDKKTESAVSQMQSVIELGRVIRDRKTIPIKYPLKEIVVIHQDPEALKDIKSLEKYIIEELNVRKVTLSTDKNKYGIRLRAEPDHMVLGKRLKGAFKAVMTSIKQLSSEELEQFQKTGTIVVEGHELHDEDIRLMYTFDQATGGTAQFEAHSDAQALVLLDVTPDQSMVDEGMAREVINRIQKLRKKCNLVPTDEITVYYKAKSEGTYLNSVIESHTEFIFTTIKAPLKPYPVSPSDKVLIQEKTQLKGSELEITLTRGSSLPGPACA

T2: Flag-tagged IARS1 UNE-I domain (residues 942–1262) (human) (UniProt P41252)
T2 sequence: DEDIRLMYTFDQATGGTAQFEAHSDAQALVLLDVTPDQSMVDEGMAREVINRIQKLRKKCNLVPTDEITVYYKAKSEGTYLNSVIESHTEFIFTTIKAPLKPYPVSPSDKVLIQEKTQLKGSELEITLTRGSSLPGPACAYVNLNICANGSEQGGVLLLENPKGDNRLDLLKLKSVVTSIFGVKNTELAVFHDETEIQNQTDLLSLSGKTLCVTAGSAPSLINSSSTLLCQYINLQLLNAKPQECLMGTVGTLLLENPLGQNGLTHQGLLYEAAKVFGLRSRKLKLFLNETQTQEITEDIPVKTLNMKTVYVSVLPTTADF

T3: Flag-tagged wild-type IARS1 (human), P41252
T3 chain: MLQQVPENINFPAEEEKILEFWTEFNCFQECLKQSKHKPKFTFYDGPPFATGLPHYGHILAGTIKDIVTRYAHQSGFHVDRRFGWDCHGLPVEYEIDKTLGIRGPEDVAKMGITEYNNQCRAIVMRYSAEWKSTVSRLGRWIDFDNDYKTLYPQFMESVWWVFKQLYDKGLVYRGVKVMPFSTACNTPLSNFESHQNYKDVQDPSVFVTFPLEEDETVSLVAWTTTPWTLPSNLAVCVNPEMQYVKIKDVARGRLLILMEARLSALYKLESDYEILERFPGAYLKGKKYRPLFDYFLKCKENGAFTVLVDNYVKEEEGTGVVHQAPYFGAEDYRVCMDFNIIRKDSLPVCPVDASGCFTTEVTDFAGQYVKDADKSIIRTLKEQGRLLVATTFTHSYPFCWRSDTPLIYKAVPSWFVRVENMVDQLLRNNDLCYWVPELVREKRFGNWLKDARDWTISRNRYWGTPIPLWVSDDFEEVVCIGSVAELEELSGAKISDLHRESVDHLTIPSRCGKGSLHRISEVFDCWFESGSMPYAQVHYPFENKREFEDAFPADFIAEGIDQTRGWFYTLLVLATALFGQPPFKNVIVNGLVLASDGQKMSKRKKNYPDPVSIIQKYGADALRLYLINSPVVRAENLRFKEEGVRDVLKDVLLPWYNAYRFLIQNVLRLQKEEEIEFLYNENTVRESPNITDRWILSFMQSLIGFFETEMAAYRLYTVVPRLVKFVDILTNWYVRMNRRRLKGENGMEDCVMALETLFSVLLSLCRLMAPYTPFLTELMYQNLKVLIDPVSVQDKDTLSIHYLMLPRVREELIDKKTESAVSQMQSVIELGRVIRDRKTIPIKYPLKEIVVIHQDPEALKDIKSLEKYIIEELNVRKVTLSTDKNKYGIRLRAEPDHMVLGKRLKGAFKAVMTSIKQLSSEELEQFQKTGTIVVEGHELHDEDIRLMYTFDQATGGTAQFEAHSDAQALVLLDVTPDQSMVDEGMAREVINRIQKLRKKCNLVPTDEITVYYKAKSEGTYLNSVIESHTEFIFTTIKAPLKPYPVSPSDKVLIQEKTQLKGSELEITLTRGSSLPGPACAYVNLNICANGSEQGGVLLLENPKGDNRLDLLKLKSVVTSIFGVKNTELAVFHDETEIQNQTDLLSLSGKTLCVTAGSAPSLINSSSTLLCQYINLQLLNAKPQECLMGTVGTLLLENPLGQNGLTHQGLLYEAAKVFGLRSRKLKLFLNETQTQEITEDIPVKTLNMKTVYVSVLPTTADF

T4: Flag-tagged wild-type IARS1 (human) (UniProt P41252)
T4 sequence: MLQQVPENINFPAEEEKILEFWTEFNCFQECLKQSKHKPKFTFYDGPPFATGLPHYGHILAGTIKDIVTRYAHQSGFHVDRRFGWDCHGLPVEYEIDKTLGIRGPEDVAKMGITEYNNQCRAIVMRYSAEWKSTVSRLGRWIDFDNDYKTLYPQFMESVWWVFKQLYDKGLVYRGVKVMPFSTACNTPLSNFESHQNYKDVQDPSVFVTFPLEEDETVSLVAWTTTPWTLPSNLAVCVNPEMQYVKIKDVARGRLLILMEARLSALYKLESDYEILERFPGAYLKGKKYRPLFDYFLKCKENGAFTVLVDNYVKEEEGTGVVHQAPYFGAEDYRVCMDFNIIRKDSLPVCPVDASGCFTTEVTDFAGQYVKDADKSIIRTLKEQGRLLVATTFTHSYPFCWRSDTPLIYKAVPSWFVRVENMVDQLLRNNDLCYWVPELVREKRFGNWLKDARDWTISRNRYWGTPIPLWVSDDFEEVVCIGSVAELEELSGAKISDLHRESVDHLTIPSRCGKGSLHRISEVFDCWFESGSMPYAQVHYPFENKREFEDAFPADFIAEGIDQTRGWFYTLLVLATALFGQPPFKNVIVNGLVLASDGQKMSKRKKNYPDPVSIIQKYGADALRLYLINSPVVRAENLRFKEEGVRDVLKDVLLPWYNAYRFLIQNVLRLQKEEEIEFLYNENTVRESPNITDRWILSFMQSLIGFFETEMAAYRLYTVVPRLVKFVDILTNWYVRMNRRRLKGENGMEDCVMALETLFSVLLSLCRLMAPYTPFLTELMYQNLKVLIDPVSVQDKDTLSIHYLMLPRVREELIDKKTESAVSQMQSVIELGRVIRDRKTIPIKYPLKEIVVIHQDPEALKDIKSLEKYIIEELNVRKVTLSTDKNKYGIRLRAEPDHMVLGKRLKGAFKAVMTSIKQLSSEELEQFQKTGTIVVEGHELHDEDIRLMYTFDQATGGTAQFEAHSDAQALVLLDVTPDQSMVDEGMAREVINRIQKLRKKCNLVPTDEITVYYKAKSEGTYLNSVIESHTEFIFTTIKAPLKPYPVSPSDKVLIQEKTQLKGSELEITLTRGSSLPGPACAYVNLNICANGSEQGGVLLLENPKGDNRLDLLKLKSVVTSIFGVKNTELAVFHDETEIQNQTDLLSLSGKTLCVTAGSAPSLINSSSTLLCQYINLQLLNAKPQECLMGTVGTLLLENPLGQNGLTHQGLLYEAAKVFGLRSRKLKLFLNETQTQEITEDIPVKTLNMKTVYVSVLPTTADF


Tests used:
Test in all cases: affinity purification with mass spectrometry; Flag-tagged IARS1 constructs transiently expressed in HEK293T, lysed with buffer X, Flag-M2 beads, eluted with 0.4 mg/mL Flag peptide, LC-MS/MS
[1] = biological target: T1, Flag-tagged C-terminal-deleted IARS1 (ΔC, residues 1–1081) (human)
[2] = biological target: T2, Flag-tagged IARS1 UNE-I domain (residues 942–1262) (human)
[3] = biological target: T3, Flag-tagged wild-type IARS1 (human), …; conditions: remark: other sources report otherwise
[4] = biological target: T4, Flag-tagged wild-type IARS1 (human)

binding [1] | binding [2] | binding [3] | binding [4] | Binder
no binding | binds | – | – | DARS1 (aspartyl-tRNA synthetase 1), endogenous (enzyme, UniProt P14868 1-501) MPSASASRKSQEKPREIMDAAEDYAKERYGISSMIQSQEKPDRVLVRVRDLTIQKADEVVWVRARVHTSRAKGKQCFLVLRQQQFNVQALVAVGDHASKQMVKFAANINKESIVDVEGVVRKVNQKIGSCTQQDVELHVQKIYVISLAEPRLPLQLDDAVRPEAEGEEEGRATVNQDTRLDNRVIDLRTSTSQAVFRLQSGICHLFRETLINKGFVEIQTPKIISAASEGGANVFTVSYFKNNAYLAQSPQLYKQMCICADFEKVFSIGPVFRAEDSNTHRHLTEFVGLDIEMAFNYHYHEVMEEIADTMVQIFKGLQERFQTEIQTVNKQFPCEPFKFLEPTLRLEYCEALAMLREAGVEMGDEDDLSTPNEKLLGHLVKEKYDTDFYILDKYPLAVRPFYTMPDPRNPKQSNSYDMFMRGEEILSGAQRIHDPQLLTERALHHGIDLEKIKAYIDSFRFGAPPHAGGGIGLERVTMLFLGLHNVRQTSMFPRDPKRLTP
– | – | binds | – | DARS1 (aspartyl-tRNA synthetase 1), endogenous, P14868 1-501 (enzyme) MPSASASRKSQEKPREIMDAAEDYAKERYGISSMIQSQEKPDRVLVRVRDLTIQKADEVVWVRARVHTSRAKGKQCFLVLRQQQFNVQALVAVGDHASKQMVKFAANINKESIVDVEGVVRKVNQKIGSCTQQDVELHVQKIYVISLAEPRLPLQLDDAVRPEAEGEEEGRATVNQDTRLDNRVIDLRTSTSQAVFRLQSGICHLFRETLINKGFVEIQTPKIISAASEGGANVFTVSYFKNNAYLAQSPQLYKQMCICADFEKVFSIGPVFRAEDSNTHRHLTEFVGLDIEMAFNYHYHEVMEEIADTMVQIFKGLQERFQTEIQTVNKQFPCEPFKFLEPTLRLEYCEALAMLREAGVEMGDEDDLSTPNEKLLGHLVKEKYDTDFYILDKYPLAVRPFYTMPDPRNPKQSNSYDMFMRGEEILSGAQRIHDPQLLTERALHHGIDLEKIKAYIDSFRFGAPPHAGGGIGLERVTMLFLGLHNVRQTSMFPRDPKRLTP
no binding | binds | – | binds | QARS1 (glutaminyl-tRNA synthetase 1), endogenous (enzyme, UniProt P47897 1-775) MAALDSLSLFTSLGLSEQKARETLKNSALSAQLREAATQAQQTLGSTIDKATGILLYGLASRLRDTRRLSFLVSYIASKKIHTEPQLSAALEYVRSHPLDPIDTVDFERECGVGVIVTPEQIEEAVEAAINRHRPQLLVERYHFNMGLLMGEARAVLKWADGKMIKNEVDMQVLHLLGPKLEADLEKKFKVAKARLEETDRRTAKDVVENGETADQTLSLMEQLRGEALKFHKPGENYKTPGYVVTPHTMNLLKQHLEITGGQVRTRFPPEPNGILHIGHAKAINFNFGYAKANNGICFLRFDDTNPEKEEAKFFTAICDMVAWLGYTPYKVTYASDYFDQLYAWAVELIRRGLAYVCHQRGEELKGHNTLPSPWRDRPMEESLLLFEAMRKGKFSEGEATLRMKLVMEDGKMDPVAYRVKYTPHHRTGDKWCIYPTYDYTHCLCDSIEHITHSLCTKEFQARRSSYFWLCNALDVYCPVQWEYGRLNLHYAVVSKRKILQLVATGAVRDWDDPRLFTLTALRRRGFPPEAINNFCARVGVTVAQTTMEPHLLEACVRDVLNDTAPRAMAVLESLRVIITNFPAAKSLDIQVPNFPADETKGFHQVPFAPIVFIERTDFKEEPEPGFKRLAWGQPVGLRHTGYVIELQHVVKGPSGCVESLEVTCRRADAGEKPKAFIHWVSQPLMCEVRLYERLFQHKNPEDPTEVPGGFLSDLNLASLHVVDAALVDCSVALAKPFDKFQFERLGYFSVDPDSHQGKLVFNRTVTLKEDPGKV

These are yes or no findings as the source states them, for the method shown. Binding seen in cells or lysates may run through a third protein. A yes stands for co-enrichment or nearness to the bait. Other partners may have been found. For part of these data: No binding means not detected with the bait. Sequences can lack the tags named with a protein.
